Test results reported in article PMC11914185.
No constants are given. Whether binding was seen depends on the method and setting. In cells and extracts the contact can be indirect. Some results given as binding are weak or reduced against the parent protein; the word gives no strength.

Sequences of proteins named here, by UniProt entry; tags and fusion partners are left off.
UniProt Q9Y4A5: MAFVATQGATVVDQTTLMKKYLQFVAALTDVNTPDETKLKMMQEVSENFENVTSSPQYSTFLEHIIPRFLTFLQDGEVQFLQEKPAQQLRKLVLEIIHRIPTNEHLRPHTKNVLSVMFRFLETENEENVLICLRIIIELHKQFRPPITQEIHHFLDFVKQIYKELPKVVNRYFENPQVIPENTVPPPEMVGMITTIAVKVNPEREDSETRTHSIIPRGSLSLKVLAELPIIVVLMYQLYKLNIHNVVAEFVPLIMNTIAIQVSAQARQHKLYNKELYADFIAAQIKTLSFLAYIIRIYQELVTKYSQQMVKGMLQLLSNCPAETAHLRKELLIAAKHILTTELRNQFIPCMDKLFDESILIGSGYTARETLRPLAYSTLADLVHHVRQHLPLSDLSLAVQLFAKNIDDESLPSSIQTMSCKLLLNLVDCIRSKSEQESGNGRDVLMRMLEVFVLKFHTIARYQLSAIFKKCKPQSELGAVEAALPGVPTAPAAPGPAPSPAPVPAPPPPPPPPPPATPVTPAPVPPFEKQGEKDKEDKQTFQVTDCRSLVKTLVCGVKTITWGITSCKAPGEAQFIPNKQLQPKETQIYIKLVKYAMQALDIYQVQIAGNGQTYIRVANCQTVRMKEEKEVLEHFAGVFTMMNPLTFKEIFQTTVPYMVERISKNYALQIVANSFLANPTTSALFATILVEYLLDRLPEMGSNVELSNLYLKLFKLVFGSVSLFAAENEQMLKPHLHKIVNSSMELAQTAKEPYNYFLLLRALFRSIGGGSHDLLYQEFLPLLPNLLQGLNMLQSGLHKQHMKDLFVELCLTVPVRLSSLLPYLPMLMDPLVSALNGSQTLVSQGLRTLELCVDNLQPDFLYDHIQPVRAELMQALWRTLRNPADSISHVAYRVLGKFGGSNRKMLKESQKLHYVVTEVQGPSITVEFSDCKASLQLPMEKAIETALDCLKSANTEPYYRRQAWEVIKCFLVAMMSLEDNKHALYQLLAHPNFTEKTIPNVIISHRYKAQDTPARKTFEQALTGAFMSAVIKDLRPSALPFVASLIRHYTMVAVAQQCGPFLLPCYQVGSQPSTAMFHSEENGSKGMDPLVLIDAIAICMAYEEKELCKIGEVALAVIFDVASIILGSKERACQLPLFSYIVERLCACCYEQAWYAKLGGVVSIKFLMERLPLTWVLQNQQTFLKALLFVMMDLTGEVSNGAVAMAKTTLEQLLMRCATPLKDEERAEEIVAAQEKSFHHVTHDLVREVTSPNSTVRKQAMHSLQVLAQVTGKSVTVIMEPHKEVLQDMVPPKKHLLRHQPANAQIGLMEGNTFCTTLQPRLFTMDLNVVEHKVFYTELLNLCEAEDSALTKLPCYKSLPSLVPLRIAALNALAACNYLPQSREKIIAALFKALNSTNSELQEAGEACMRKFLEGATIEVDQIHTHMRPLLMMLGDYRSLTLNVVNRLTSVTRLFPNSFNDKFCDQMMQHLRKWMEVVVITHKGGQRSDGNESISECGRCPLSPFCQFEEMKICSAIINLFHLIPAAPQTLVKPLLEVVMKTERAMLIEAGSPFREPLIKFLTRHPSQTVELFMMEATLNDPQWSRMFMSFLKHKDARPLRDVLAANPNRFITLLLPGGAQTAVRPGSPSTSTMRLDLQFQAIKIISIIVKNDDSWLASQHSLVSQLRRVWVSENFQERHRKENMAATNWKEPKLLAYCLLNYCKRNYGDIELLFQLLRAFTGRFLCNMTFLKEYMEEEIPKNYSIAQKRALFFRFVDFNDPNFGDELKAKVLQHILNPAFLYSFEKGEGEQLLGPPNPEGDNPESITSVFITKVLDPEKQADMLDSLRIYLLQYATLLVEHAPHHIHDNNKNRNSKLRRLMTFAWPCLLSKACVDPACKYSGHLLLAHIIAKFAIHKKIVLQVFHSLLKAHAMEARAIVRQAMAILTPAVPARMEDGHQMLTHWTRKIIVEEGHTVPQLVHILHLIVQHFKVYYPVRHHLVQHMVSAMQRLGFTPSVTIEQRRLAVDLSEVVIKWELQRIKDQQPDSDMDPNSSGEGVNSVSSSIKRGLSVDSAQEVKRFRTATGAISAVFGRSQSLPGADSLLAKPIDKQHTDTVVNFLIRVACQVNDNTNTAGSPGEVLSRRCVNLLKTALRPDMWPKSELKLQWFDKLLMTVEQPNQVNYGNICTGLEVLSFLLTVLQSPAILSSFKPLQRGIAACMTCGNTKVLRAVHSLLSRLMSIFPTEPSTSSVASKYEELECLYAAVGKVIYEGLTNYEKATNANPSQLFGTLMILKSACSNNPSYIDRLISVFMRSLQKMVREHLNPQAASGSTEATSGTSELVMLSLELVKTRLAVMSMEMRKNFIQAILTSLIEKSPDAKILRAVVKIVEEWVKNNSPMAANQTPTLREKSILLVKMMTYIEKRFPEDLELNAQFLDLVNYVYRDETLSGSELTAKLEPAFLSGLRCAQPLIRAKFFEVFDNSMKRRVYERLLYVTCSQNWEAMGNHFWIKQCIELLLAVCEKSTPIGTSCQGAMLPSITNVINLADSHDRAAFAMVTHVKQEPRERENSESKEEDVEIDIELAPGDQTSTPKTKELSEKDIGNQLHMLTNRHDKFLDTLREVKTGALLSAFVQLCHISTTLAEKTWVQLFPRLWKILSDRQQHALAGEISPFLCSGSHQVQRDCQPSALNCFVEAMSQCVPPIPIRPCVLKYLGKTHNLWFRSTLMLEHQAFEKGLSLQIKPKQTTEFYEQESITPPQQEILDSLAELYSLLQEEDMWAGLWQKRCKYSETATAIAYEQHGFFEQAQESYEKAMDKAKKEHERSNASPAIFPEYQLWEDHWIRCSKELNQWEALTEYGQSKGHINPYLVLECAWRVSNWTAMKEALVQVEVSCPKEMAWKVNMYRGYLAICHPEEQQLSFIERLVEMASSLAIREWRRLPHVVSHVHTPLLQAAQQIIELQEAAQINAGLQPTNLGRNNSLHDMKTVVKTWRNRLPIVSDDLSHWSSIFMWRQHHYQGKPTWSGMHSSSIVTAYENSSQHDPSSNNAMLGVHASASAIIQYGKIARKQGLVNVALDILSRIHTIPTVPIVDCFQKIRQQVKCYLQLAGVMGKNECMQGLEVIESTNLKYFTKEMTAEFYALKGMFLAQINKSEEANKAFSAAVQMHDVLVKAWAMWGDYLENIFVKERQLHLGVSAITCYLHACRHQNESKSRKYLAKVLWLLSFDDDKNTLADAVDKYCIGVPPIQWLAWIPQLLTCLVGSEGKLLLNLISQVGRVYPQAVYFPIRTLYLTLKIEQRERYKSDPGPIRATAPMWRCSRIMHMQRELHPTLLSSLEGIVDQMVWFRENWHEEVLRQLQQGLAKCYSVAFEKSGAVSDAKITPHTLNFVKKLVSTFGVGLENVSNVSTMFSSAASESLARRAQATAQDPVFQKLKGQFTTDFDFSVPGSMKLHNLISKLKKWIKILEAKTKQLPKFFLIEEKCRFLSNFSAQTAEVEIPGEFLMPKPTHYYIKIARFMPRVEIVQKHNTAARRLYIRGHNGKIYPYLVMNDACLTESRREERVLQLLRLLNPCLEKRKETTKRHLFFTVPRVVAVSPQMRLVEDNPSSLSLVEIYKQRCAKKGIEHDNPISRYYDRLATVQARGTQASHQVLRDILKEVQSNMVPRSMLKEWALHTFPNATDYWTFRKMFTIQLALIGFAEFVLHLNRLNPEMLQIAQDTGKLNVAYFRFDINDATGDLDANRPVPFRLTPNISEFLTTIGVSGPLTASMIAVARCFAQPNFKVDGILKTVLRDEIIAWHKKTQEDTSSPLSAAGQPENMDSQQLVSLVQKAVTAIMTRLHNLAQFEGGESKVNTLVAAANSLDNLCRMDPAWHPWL
UniProt Q9HCK8: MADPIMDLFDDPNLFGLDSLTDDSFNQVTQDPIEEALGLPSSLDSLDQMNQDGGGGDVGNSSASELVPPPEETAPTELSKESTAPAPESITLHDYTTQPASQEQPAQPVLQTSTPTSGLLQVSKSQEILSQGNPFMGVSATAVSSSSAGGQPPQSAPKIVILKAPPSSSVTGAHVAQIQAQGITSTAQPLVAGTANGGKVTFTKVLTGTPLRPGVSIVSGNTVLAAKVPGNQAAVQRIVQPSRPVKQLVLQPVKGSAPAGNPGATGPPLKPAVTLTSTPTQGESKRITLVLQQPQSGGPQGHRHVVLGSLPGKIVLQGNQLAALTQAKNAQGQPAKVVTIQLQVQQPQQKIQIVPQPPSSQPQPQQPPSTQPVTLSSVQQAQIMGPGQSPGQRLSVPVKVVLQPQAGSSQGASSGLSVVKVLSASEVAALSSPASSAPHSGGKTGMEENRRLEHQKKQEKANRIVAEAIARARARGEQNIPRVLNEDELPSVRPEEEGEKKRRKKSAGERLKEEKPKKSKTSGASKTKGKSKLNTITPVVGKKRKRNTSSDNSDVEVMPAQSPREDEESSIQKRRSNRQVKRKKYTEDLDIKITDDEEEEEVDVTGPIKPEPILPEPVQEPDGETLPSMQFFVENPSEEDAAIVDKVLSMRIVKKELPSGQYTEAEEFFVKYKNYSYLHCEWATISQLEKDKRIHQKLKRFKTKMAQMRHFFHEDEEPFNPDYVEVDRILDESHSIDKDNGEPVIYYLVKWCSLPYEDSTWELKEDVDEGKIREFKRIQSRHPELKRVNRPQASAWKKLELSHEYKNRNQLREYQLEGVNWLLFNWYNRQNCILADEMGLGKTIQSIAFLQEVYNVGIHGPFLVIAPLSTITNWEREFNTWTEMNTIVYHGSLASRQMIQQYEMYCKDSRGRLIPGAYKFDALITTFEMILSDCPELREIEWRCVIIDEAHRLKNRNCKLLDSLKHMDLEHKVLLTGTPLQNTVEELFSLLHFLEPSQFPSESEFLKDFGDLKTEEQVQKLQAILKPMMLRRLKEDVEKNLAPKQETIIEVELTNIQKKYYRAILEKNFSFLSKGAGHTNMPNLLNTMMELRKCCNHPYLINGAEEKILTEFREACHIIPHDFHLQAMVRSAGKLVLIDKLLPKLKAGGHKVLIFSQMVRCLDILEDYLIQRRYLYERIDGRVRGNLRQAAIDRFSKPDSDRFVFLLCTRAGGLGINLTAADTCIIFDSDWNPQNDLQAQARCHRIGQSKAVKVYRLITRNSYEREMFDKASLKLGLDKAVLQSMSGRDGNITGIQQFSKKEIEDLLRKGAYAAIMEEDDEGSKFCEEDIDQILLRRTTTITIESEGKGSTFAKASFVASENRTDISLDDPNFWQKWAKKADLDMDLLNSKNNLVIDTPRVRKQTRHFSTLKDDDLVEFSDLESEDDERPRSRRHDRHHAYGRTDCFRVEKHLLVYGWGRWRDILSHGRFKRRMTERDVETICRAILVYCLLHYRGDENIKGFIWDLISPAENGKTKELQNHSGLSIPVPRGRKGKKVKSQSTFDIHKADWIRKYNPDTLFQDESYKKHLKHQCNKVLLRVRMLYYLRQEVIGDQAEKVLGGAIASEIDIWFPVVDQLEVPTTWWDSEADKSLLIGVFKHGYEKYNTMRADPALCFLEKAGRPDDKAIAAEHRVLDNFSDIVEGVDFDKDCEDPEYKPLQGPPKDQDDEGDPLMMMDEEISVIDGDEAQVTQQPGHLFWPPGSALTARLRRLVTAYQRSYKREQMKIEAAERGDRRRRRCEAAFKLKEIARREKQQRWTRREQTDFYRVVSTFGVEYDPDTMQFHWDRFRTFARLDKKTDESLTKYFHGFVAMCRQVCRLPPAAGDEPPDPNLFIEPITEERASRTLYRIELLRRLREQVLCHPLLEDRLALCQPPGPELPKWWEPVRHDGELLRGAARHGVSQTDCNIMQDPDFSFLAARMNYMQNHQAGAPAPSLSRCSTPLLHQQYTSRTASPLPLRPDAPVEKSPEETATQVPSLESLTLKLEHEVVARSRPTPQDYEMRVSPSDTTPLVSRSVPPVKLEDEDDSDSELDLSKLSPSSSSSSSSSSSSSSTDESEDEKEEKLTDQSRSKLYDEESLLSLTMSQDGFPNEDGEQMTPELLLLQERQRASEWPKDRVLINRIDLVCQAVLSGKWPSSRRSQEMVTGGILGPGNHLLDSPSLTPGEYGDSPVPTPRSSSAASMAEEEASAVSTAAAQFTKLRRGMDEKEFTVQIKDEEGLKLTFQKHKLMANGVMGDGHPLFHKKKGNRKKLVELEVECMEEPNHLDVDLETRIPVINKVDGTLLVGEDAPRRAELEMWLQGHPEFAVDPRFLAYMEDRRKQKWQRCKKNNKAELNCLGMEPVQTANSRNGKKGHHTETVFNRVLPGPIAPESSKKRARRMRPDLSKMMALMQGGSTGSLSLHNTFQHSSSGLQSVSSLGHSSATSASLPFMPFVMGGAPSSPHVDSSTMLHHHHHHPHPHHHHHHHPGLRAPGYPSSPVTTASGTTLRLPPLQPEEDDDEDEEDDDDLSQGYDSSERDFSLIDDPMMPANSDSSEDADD

How the values were obtained:
[1] = target: TRRAP (human (endogenous in hNSCs)) (UniProt Q9Y4A5); assay: co-IP; endogenous proteins in 250 ul hNSC nuclear extract with 38 units Benzonase; TRRAP antibody or CHD8 antibody, 2 h at 4°C, ProtG Dynabeads in C-100 buffer; IgG control; western blot
[2] = target: Chromodomain helicase DNA-binding protein 8 (CHD8), endogenous (human (endogenous in hNSCs)) (UniProt Q9HCK8); assay: as above

binding [1] | binding [2] | Substance
binds |  | Chromodomain helicase DNA-binding protein 8 (CHD8), endogenous (from UniProt Q9HCK8 1-2581)
 | binds | TRRAP (from UniProt Q9Y4A5 1-3859)
